In all, about 33,000 sequences were measured (“E-score (-0.5 to 0.5)”: median about -8e-05, highest 2% from about 0.23 on). Some of the results follow.
What follows are sequences tested against T1, Nrg2 (UniProt P38082) (assay: PBM E-score (8-mer binding enrichment) (E-score (-0.5 to 0.5)); higher = stronger / more preferred TF binding). Details: protein concentration: 100 nM; construct: GST-full length.
T1 sequence: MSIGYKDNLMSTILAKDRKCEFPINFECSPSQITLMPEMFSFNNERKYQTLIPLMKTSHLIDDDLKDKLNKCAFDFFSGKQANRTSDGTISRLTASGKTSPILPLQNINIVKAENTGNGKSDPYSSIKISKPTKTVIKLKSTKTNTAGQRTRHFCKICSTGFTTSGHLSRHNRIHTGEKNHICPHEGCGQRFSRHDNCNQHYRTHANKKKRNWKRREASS
Procedure, shortened: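 Yeast transcription factors carrying a GST tag, as full-length proteins or DNA-binding domains, were produced by PURExpress in vitro transcription/translation. About 100-200 nM protein was applied to universal all-10-mer Agilent arrays, double-stranded by primer extension on fresh or once-stripped slides. Bound protein was detected with fluorescent anti-GST, and scans were normalised with masliner. The Universal PBM Analysis Suite gave each ungapped eight-base word, pooled with its reverse complement, an E-score, a modified Wilcoxon-Mann-Whitney statistic.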

| Sequence | PBM E-score |
| --- | --- |
| CCGCGGCG | 0.0423 |
| CCAGTGAA | -0.23 |
| GACGCCTA | 0.0134 |
| CTGATCGA | -0.214 |
| AATACAGC | 0.13 |
| CAAAAGCC | -0.021 |
| CGATTGTC | -0.00587 |
| TCCCCAAA | 0.113 |
| AGGTCGTG | -0.0806 |
| GAAGGTAC | -0.0911 |
| ACTTCATC | 0.0308 |
| AGGCCACA | -0.149 |
| GTGGCCCA | -0.0223 |
| AGGTAATA | 0.14 |
| ATCCCTCG | 0.0848 |
| CCTCACAG | 0.0646 |
| GTTTGGTA | 0.197 |
| AGTTCACC | 0.105 |
| GAGGCCAC | -0.0494 |
| CGTGATAA | -0.0171 |
| ATTCTTCG | 0.054 |
| AAAGCCTT | -0.174 |
| CTGCATAA | 0.102 |
| CAATGATA | 0.128 |
| ATTCGATG | -0.00387 |

Four entries drawn at random from those above:

| Sequence | PBM E-score |
| --- | --- |
| GTGGCCCA | -0.0223 |
| CAAAAGCC | -0.021 |
| CCTCACAG | 0.0646 |
| CTGCATAA | 0.102 |

The list goes on.

| Sequence | PBM E-score |
| --- | --- |
| ATCGCTCA | 0.0717 |
| ACAGCCCA | -0.221 |
| ATTTGAGC | -0.0085 |
| CATAGGTA | -0.0194 |
| ATGACATA | 0.161 |
| CCGACCGG | -0.137 |
| CGATGCAA | -0.0143 |
| AGTGTGCA | 0.134 |
| ACGTTGAT | 0.0819 |
| CTGGCGGC | -0.0616 |
| CAAGACGA | -0.0054 |
| GTAGCGTA | 0.012 |
| TCAATGGA | -0.029 |
| GAGAACCC | 0.0255 |
| GGTCGTGA | -0.184 |
| ATACTTTG | 0.138 |
| AATTATCT | 0.205 |
| AGATGCAG | 0.0787 |
| CTCTTATA | 0.0901 |
| CAGTGCAC | -0.0259 |
| GACCCCAC | 0.142 |
| AAAAACAC | 0.0766 |
| ACCTGACC | -0.197 |
| AAATTGTG | -0.0563 |
| AAGGCTGA | -0.081 |

| Sequence | PBM E-score |
| --- | --- |
| AAGAACAC | 0.0704 |
| AGCACAAC | 0.0937 |
| ACCGAACT | -0.146 |
| CTGGTTTC | 0.146 |
| CTGTCAAA | -0.0866 |
| ATAGGCAT | -0.0379 |
| ACTACTAT | 0.27 |
| GTCACACA | -0.0792 |
| GATGGCGC | -0.034 |
| CGTGGATC | 0.0135 |
| ACGTAAGA | -0.069 |
| GACTCGAA | -0.181 |
| TAATTCAA | 0.152 |
| ATCGGGCC | -0.2 |
| CTGTCGCC | 0.0267 |
| GCGAGTCC | -0.0555 |
| CTTGAGCC | -0.0733 |
| AATCAACA | 0.239 |
| CGCCTGGA | 0.042 |
| GAGCTCTA | 0.106 |
| ACATCTAG | 0.113 |
| ATCAACAC | 0.105 |
| CTTCATAC | 0.112 |
| CTGAAAGA | -0.0879 |
| CCGTGCGA | 0.127 |

| Sequence | PBM E-score |
| --- | --- |
| TCTAGACA | 0.0482 |
| AAGCAGAC | -0.00611 |
| AGTGGAAA | -0.0137 |
| CGAGACCG | -0.0751 |
| GGCAATAC | 0.176 |
| GCCTTCGA | -0.174 |
| CCATCCCG | -0.133 |
| AAAAGATA | 0.0533 |
| CTTATCCA | -0.0715 |
| ACCATGGC | 0.088 |
| GATTTGCA | 0.15 |
| AACCGATA | 0.172 |
| TATCTCAA | 0.267 |
| AACTCCTG | -0.136 |
| AATGGCGA | 0.18 |
| ACACCGTG | -0.138 |
| CCGGTTGC | 0.0222 |
| GTGCTTTA | 0.00519 |
| CCTTTGCC | -0.196 |
| AATTCGTA | 0.0307 |
| GAGAGCGA | -0.0278 |
| CACACATG | -0.019 |
| GGTGTGAA | 0.132 |
| CCTAATAG | -0.0529 |
| ACATTAGA | -0.0413 |

| Sequence | PBM E-score |
| --- | --- |
| CGTTGCAG | -0.075 |
| GGCTTGAA | -0.0173 |
| CCAACCCG | -0.0787 |
| AACATGCA | 0.121 |
| AGACCCTG | 0.431 |
| GGTTTTAA | 0.0537 |
| TAATCGAA | 0.176 |
| CCTAGCTC | -0.0333 |
| CAAGATGG | -0.0175 |
| CCACTGCA | -0.0415 |
| AAATGGGA | -0.0677 |
| CAAATTGG | 0.181 |
| AGACGGCC | -0.0662 |
| GCGAAAAA | 0.176 |
| CATCTAAG | 0.0254 |
| AGACCTAC | -0.067 |
| TCGATAAA | 0.013 |
| CACTTTGG | 0.0319 |
| GCCTTCAC | 0.0605 |
| AGGGGTTA | 0.0393 |
| GACCCGAC | -0.0111 |
| TATCATGA | 0.093 |
| ACCTAGAA | -0.0741 |
| CCAAACGG | -0.0561 |
| ACCTTATA | 0.099 |

| Sequence | PBM E-score |
| --- | --- |
| GCCTTCCA | -0.051 |
| AATTGGCC | -0.0225 |
| ATTTATAC | 0.208 |
| AGCCGGAC | 0.125 |
| CGCAGGTA | 0.056 |
| CGCCCCCC | -0.457 |
| GGGGAGAA | -0.21 |
| CCGGTTAA | -0.0773 |
| CGTTACTC | -0.132 |
| GTAAAGTA | 0.0985 |
| GCACGACC | -0.0619 |
| CCAATGTA | -0.177 |
| AACCAGAG | 0.103 |
| CAAGTGTC | 0.00801 |
| AAGCGGGT | 0.00955 |
| ATTCCCTC | 0.0205 |
| GAACAGAA | 0.0366 |
| CCTTAAGA | 0.0838 |
| ATATAGAG | -0.069 |
| CAGAATCG | -0.0128 |
| ACCTCCTA | -0.264 |
| AGTTACAC | 0.031 |
| GCAGGATA | 0.00604 |
| AGTTGGAT | 0.00499 |
| CGACATAC | 0.0964 |

Reformatted with bars between the fields: entries from further up
Sequence | PBM E-score
ATTTATAC | 0.208
AGCCGGAC | 0.125
CGCAGGTA | 0.056
CGCCCCCC | -0.457
GGGGAGAA | -0.21
CCGGTTAA | -0.0773

Additional records.

| Sequence | PBM E-score |
| --- | --- |
| GACGGCAC | -0.243 |
| CGCAGTGC | -0.121 |
| TCAACAGA | 0.0444 |
| ACGTATCG | -0.0544 |
| AGCGAGAA | -0.0328 |
| ACGTGCTC | -0.148 |
| ATACTAAC | 0.136 |
| ACGGCTCA | 0.0324 |
| CAGAAGCA | 0.0277 |
| ACGTACTG | 0.0327 |
| CCCGGGCG | -0.142 |
| CACGTAGG | -0.156 |
| CGGAATTC | -0.0171 |
| CTTATTAC | 0.128 |
| ACCGTGCC | -0.0394 |
| ACTGCTGG | -0.0922 |
| CGTGCACC | -0.0971 |
| GATCACCC | -0.0149 |
| CTGCGAGA | -0.263 |
| ACCTACTG | -0.126 |
| ACAATTCA | -0.0411 |
| ATGTATTC | 0.16 |
| ACACCTGC | -0.0423 |
| TCCTGTAA | 0.0125 |
| CTCGGCCA | 0.104 |

Some values from the list:
PBM E-score, CTTATTAC is entered as 0.128
PBM E-score, GACGGCAC is entered as -0.243

Continued.

| Sequence | PBM E-score |
| --- | --- |
| AAAGTTTG | 0.0906 |
| ATACAGCG | -0.0502 |
| CTTATAAC | 0.091 |
| GCTCAGTA | -0.0523 |
| ACGAGTAA | 0.244 |
| CTACCCAC | -0.14 |
| AACAACTA | 0.0186 |
| TCCAGCGA | -0.0087 |
| GCAACTAC | 0.0322 |
| CGAGGAGC | -0.137 |
| TAGAACAA | -0.00331 |
| GTTACCGA | -0.123 |
| CTCTATGC | -0.0268 |
| CACGACTA | -0.107 |
| GCTAGCCA | -0.196 |
| CACGGGCC | -0.157 |
| AGGGGCAC | -0.111 |
| GTCCGAAC | 0.0315 |
| CGCGTATA | -0.129 |
| CGGATTAA | -0.00468 |
| CCGTGGAC | -0.0272 |
| CACAAACG | 0.144 |
| AGTTCAGG | 0.0281 |
| CGGGATAA | 0.0879 |
| AGTGGACA | 0.0593 |

| Sequence | PBM E-score |
| --- | --- |
| CCTTTGGC | -0.0852 |
| ATCTAGCG | -0.0817 |
| CACCTCCG | -0.018 |
| CGAATTTC | 0.137 |
| CACTAGAA | -0.0145 |
| CCGGCGGC | -0.197 |
| CCACAAGA | 0.0312 |
| CACGACAC | -0.113 |
| AGACACAC | -0.0349 |
| GGATAAAA | 0.109 |
| ATAGCATG | 0.00622 |
| ATGTTGTC | 0.124 |
| CGAACCCC | 0.197 |
| AGGTGCGC | -0.0417 |
| CTGAACCC | 0.218 |
| CCAACGAA | 0.0181 |
| GAAGTTCC | -0.0696 |
| GTACTCCA | -0.0188 |
| GAATTCTA | 0.154 |
